The other results are listed elsewhere or left out.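 The calls were made as follows: active = dose-dependent thermal stabilisation significant by F-test of dose-response against flat model at 10% FDR; inactive = not significant.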
These targets were tested with Nc1nc2c(ncn2[C@@H]2O[C@H](COP(=O)(O)OP(=O)(O)OP(=O)(O)O)[C@@H](O)[C@H]2O)c(=O)[nH]1 (assay: dose-dependent thermal stabilisation call (2D-TPP, DLPTP, 10% FDR) (binary (1 = stabilised)); higher = stabilised by the compound). Conditions: system: Jurkat gel-filtered lysate; concentration range 1-500 µM.
Description: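 2D thermal proteome profiling in gel-filtered Jurkat E6.1 lysate (2 mg/ml) treated with NaGTP (0, 1, 10, 100, 500 uM) for 10 min at room temperature, then heated 3 min at one of 12 temperatures (42-63.9 C). Soluble protein was quantified by TMT10 MS. The value is the DLPTP call of the paper: dose-dependent thermal stabilisation over all temperatures at 10% FDR (F-test of a dose-response against a flat model); one experiment, one call per tested protein.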

Sequences of proteins named here, by UniProt entry; tags and fusion partners are left off. A change or cut given only in a name is not applied to a line headed by its entry.
UniProt Q7LBR1: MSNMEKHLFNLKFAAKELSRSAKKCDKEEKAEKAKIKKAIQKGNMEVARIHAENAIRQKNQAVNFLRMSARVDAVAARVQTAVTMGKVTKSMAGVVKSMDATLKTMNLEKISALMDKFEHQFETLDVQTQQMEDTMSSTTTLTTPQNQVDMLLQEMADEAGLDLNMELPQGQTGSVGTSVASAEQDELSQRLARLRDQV
UniProt Q8N2Z9: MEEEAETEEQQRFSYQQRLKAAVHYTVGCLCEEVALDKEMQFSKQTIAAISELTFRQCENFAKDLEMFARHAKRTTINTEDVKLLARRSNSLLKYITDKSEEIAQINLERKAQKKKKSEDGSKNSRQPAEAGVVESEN
UniProt Q00536: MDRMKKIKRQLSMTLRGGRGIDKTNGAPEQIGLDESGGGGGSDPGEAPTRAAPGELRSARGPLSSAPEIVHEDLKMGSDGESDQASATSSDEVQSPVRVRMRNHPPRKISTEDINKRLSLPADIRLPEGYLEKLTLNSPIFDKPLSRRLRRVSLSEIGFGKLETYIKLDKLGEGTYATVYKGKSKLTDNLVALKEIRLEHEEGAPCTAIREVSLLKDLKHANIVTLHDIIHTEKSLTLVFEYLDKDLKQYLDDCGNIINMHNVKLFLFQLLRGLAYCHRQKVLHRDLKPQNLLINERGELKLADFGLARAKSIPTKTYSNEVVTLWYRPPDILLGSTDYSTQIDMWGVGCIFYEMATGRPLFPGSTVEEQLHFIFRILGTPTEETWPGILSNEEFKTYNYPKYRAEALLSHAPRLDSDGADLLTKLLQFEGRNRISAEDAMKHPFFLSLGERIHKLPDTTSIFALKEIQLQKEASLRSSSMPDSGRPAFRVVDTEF
UniProt Q96HQ2: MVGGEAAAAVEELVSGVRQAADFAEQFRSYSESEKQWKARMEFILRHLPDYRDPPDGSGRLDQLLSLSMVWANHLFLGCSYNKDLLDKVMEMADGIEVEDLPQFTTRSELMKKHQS
UniProt P61201: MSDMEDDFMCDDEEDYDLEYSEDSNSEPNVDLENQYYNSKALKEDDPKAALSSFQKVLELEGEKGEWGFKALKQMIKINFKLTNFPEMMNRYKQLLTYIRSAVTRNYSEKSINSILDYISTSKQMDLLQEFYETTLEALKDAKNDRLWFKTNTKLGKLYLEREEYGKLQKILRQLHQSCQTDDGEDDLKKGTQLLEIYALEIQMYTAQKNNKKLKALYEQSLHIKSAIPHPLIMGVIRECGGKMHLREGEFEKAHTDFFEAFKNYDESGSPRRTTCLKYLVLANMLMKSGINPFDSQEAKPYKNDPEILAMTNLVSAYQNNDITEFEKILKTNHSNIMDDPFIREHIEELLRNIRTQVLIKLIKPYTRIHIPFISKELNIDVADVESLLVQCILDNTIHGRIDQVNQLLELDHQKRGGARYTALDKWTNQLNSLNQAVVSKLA
UniProt Q96JB2: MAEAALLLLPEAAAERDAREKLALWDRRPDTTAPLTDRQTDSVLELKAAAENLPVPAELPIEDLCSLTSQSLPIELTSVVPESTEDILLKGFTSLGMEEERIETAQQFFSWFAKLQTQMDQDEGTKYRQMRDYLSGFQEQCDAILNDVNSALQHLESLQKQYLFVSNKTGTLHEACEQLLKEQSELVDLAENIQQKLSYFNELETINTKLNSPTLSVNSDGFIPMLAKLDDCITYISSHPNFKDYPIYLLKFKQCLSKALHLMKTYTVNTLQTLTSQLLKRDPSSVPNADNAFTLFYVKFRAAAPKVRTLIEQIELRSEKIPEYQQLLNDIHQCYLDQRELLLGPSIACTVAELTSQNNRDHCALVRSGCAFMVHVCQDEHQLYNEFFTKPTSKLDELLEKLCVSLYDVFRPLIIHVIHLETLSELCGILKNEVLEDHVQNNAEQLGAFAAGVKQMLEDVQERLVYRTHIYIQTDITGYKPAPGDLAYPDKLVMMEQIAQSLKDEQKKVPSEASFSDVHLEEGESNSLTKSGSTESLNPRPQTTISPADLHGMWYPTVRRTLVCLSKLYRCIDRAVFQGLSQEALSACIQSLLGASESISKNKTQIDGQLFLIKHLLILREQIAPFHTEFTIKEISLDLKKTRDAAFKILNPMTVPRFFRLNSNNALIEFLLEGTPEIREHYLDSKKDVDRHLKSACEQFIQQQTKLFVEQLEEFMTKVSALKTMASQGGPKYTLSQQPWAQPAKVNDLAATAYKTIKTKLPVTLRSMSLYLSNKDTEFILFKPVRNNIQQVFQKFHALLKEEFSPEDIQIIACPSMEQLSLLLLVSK
UniProt Q16543: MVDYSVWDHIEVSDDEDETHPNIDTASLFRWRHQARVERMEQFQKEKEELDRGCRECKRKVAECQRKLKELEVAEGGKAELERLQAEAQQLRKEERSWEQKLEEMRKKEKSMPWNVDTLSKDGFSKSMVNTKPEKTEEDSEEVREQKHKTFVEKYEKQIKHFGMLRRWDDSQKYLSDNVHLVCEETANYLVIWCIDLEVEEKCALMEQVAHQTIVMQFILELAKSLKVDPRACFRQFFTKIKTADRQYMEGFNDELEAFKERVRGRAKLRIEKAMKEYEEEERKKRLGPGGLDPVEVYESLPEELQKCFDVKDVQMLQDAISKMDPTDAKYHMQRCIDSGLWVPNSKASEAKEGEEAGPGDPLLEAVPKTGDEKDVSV
UniProt P15812: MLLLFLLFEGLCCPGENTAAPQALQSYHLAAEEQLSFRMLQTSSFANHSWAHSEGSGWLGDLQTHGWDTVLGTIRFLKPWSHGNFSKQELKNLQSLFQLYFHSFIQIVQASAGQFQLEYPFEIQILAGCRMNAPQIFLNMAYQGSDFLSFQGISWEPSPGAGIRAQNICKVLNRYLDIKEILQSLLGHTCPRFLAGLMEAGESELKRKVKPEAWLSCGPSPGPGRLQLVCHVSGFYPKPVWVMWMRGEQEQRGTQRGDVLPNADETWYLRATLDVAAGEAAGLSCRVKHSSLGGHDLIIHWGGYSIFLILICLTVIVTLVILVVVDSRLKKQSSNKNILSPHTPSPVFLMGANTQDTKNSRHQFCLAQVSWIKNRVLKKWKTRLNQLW
UniProt Q8WUH1: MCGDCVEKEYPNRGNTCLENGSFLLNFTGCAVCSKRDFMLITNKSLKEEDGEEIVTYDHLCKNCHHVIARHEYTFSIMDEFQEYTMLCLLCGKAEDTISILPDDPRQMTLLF
UniProt Q16740, whole entry: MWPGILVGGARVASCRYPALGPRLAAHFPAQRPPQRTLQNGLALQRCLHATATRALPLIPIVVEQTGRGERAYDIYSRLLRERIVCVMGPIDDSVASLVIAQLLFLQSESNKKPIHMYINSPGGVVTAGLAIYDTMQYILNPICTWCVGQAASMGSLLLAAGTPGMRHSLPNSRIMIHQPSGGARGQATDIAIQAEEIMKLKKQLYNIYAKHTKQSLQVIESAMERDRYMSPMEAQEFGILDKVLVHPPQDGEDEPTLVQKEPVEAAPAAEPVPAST
UniProt O75131: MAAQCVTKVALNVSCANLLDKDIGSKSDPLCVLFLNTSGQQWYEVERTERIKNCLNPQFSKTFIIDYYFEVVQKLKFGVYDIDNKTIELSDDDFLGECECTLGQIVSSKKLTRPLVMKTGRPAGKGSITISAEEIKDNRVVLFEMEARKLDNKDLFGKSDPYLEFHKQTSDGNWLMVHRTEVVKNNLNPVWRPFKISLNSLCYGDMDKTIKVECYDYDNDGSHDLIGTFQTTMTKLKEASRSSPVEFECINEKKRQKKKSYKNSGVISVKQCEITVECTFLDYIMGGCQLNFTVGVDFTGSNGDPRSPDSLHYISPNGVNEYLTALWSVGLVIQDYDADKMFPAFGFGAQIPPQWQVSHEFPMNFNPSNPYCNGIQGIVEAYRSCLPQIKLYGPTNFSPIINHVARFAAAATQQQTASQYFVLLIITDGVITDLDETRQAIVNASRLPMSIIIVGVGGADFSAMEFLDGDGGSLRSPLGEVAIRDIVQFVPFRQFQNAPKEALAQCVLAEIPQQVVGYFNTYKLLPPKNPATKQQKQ
UniProt Q9H9A5, whole entry: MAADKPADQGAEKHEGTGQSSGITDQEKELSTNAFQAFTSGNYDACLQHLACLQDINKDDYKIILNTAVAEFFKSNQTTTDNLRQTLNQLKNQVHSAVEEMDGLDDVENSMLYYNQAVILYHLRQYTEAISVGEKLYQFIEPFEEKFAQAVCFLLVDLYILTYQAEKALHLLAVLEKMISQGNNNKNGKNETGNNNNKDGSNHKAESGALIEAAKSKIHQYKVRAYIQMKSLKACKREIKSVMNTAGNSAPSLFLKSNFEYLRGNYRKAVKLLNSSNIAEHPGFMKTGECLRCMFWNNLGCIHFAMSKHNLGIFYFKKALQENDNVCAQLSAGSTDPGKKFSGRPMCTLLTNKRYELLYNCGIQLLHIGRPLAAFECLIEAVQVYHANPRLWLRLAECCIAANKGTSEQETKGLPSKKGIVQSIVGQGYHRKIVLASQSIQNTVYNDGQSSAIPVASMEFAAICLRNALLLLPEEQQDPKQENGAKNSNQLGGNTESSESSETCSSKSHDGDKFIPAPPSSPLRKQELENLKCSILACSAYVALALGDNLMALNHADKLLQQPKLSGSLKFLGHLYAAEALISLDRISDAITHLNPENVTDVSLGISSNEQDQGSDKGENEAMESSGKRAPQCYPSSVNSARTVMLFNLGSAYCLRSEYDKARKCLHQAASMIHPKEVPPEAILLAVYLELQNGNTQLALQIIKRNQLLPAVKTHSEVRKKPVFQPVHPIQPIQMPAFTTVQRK
UniProt Q8NFW8: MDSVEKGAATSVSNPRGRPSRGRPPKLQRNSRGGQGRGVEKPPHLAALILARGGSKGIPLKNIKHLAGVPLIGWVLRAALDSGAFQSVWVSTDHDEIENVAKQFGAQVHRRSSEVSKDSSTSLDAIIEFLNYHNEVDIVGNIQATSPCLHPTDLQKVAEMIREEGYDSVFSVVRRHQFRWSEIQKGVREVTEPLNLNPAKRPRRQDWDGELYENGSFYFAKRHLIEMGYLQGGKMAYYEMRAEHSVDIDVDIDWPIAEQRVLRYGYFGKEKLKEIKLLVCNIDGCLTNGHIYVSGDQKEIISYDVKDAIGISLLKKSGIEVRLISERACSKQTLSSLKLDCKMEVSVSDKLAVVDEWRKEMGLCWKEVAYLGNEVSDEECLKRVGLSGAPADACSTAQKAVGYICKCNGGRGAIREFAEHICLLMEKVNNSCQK
UniProt Q10570: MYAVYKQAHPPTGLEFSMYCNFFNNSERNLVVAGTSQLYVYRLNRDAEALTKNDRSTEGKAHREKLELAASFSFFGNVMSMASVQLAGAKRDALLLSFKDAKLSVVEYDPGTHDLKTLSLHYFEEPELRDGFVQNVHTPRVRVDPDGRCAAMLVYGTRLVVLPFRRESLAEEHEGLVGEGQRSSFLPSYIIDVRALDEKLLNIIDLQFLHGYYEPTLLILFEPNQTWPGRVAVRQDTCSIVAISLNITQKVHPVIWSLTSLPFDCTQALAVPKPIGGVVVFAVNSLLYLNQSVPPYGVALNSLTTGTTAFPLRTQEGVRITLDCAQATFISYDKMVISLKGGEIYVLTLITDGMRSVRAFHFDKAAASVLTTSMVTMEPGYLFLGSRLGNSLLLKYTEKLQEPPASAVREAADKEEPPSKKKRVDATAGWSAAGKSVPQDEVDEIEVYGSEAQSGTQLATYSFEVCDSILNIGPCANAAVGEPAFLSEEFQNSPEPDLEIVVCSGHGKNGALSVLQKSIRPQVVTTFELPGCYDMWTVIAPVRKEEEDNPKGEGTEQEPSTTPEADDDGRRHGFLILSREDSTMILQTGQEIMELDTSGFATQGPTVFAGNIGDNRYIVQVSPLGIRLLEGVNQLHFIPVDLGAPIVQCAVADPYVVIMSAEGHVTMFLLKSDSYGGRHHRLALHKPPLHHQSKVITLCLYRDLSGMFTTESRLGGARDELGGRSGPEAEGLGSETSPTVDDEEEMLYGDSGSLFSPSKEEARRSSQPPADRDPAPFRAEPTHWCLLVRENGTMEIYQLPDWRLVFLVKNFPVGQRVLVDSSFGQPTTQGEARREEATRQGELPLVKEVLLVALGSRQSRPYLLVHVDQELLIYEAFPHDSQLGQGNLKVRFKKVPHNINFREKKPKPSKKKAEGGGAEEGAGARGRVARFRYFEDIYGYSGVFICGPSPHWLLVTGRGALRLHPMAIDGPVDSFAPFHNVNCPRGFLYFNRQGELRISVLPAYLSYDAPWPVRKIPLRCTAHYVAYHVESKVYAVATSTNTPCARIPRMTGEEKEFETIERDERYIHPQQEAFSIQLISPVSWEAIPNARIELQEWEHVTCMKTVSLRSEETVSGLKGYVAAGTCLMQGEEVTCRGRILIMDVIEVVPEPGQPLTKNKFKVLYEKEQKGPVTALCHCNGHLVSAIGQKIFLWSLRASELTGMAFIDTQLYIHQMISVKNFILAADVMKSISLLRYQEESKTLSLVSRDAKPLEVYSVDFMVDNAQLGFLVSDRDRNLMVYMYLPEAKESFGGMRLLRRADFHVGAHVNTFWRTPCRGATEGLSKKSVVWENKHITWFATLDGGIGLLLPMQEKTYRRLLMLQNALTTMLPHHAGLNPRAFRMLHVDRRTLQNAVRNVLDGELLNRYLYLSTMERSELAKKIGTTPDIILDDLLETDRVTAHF

Target | dose-dependent thermal stabilisation call
CHMP1B (UniProt Q7LBR1) | inactive: 0
CCT3 (UniProt P49368) | inactive: 0
CENPS (UniProt Q8N2Z9) | inactive: 0
CDK16 (UniProt Q00536) | inactive: 0
CLN5 (UniProt O75503) | inactive: 0
CDC16 (UniProt Q13042) | inactive: 0
CNOT2 (UniProt Q9NZN8) | inactive: 0
CDKN2AIPNL (UniProt Q96HQ2) | inactive: 0
COPS8 (UniProt Q99627) | inactive: 0
COPS2 (UniProt P61201) | inactive: 0
COG3 (UniProt Q96JB2) | active: 1
CLASP2 (UniProt O75122) | inactive: 0
CKAP5 (UniProt Q14008) | inactive: 0
CCDC82 (UniProt Q8N4S0) | inactive: 0
COMMD5 (UniProt Q9GZQ3) | inactive: 0
CDC37 (UniProt Q16543) | inactive: 0
CCSER2 (UniProt Q9H7U1) | inactive: 0
CHD4 (UniProt Q14839) | inactive: 0
CNPY2 (UniProt Q9Y2B0) | inactive: 0
CD1E (UniProt P15812) | inactive: 0

Part of the list above, field by field:
CHMP1B (UniProt Q7LBR1)
  dose-dependent thermal stabilisation call: inactive: 0
CKAP5 (UniProt Q14008)
  dose-dependent thermal stabilisation call: inactive: 0
CCDC82 (UniProt Q8N4S0)
  dose-dependent thermal stabilisation call: inactive: 0

Remaining list, next part.

Target | dose-dependent thermal stabilisation call
CPSF7 (UniProt Q8N684) | inactive: 0
CHTF8 (UniProt P0CG13) | inactive: 0
CEBPZ (UniProt Q03701) | inactive: 0
CHURC1 (UniProt Q8WUH1) | inactive: 0
CLPP (UniProt Q16740) | inactive: 0
COG7 (UniProt P83436) | inactive: 0
CHTF8 (UniProt P0CG12) | inactive: 0
CPNE3 (UniProt O75131) | inactive: 0
CASTOR2 (UniProt A6NHX0) | inactive: 0
CNOT10 (UniProt Q9H9A5) | active: 1
COA7 (UniProt Q96BR5) | inactive: 0
COX6B1 (UniProt P14854) | inactive: 0
CNPY3 (UniProt Q9BT09) | inactive: 0
CELF1 (UniProt Q92879) | active: 1
CMAS (UniProt Q8NFW8) | active: 1
CENPH (UniProt Q9H3R5) | inactive: 0
CPSF1 (UniProt Q10570) | inactive: 0
CNOT6L (UniProt Q96LI5) | inactive: 0
CLTA (UniProt P09496) | inactive: 0
CEP350 (UniProt Q5VT06) | inactive: 0
